Assay results: US20100028370A1
No constants are given. Whether binding was seen depends on the method and setting. Some results given as binding are weak or reduced against the parent protein; the word gives no strength.

Amino acid sequences for entries named in this document (tags omitted). A change or cut given only in a name is not applied to a line headed by its entry. Residues count along the entry.
UniProt Q07954, residues 806-1183: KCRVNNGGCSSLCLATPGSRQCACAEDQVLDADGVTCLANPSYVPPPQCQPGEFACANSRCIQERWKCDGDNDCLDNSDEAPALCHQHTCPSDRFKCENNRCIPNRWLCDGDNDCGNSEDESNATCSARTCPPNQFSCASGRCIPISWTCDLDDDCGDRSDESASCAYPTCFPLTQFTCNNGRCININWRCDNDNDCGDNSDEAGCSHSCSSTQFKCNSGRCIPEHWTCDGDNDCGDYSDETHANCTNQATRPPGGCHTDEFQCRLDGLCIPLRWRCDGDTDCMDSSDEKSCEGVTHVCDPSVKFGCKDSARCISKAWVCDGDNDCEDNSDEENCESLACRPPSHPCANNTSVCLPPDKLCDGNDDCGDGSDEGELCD
UniProt P30533: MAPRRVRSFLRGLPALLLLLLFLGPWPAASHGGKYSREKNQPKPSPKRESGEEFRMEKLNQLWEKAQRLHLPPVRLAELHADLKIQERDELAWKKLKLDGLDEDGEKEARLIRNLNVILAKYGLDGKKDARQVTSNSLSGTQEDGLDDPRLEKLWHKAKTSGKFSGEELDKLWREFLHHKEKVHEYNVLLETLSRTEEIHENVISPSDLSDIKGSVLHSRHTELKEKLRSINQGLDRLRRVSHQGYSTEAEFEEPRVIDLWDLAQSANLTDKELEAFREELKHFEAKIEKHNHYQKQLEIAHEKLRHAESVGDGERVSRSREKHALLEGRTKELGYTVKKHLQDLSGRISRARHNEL

Tests used:
[1] = biological target: sLRP2, the entire second ligand-binding domain of human LRP1 (recombinant) (human) (UniProt Q07954); assay: dot blot overlay on immobilised human LRP binding domain 2, detection with anti-RAP antibody
[2] = biological target: sLRP2, the entire second ligand-binding domain of human LRP1 (recombinant) (human) (UniProt Q07954); assay: ligand blot, sLRP2 spotted on membrane, detection with anti-RAP antibody

- binding [1]: binds
- binding [2]: binds
Substance: receptor-associated protein (RAP) (from UniProt P30533 35-357) (ligand)
